# Laboratory results as given in the supplement of paper PMC11659162.
# The list shows a part of the results. The data scatter; read single values as rough.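 The cells are a human neuroglioma line carrying a green fluorescent autophagy reporter.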
# How the values were obtained:
# H4 GFP-LC3 [1] = test: cell viability (scaled to control) (fraction of control); higher = more viable cells
# H4 GFP-LC3 [2] = test: ACBP immunofluorescence intensity (scaled to control) (AU (scaled)); higher = more intracellular ACBP/DBI
Structure (SMILES),cell viability (H4 GFP-LC3 [1]; 6 h),cell viability (H4 GFP-LC3 [1]; 24 h),ACBP immunofluorescence intensity (H4 GFP-LC3 [2]; 6 h),ACBP immunofluorescence intensity (H4 GFP-LC3 [2]; 24 h)
Cc1ccccc1C(OCCN(C)C)c1ccccc1 (stereo unspecified) (5 µM),1,1.19,0.823,0.507
CN1[C@@H](CC(=O)c2ccccc2)CCC[C@H]1C[C@H](O)c1ccccc1 (5 µM),0.98,1.3,0.871,0.569
CN(C)CCCCSC(=N)N (5 µM),0.97,1.23,0.983,0.896
NS(=O)(=O)c1cc2c(cc1Cl)NC(C1CC3C=CC1C3)NS2(=O)=O (stereo unspecified) (5 µM),1.01,1.19,0.807,0.32
CN(C)CCCSC(=N)N (5 µM),1.12,0.982,0.882,0.517
Cn1c(=O)c2[nH]cnc2n(C)c1=O (5 µM),1.03,1.07,0.865,0.546
CCOC(=O)N1CCC(=C2c3ccc(Cl)cc3CCc3cccnc32)CC1 (5 µM),0.993,0.899,0.947,0.759
CCN1CCC[C@H]1CNC(=O)c1cc(S(N)(=O)=O)ccc1OC (5 µM),0.896,1.12,0.67,0.567
CC(C)C[C@H](NC(=O)[C@H](Cc1c[nH]c2ccccc12)NC(=O)[C@@H]1CCCN1C(=O)CNC(=O)[C@@H]1CCC(=O)N1)C(=O)N[C@@H](CCC(=O)O)C(=O)N[C@@H](CCC(=O)O)C(=O)N[C@@H](CCC(=O)O)C(=O)N[C@@H](CCC(=O)O)C(=O)N[C@@H](CCC(=O)O)C(=O)N[C@@H](C)C(=O)N[C@@H](CC1=CC=C(O)CC1)C(=O)NCC(=O)N[C@@H](Cc1c[nH]c2ccccc12)C(=O)O (5 µM),1.19,1.01,0.349,0.583
COc1ccccc1N1CCN(CCCCN2C(=O)c3ccccc3C2=O)CC1 (5 µM),0.896,1.09,0.681,0.578
Ic1ccc(N2CCN(Cc3c[nH]c4ncccc34)CC2)cc1 (5 µM),0.848,1.2,0.98,0.788
CC[C@H](C)[C@H](NC(=O)[C@H](C)NC(=O)[C@H](CC(=O)O)NC(=O)[C@H](C)NC(=O)[C@@H](N)Cc1ccc(O)cc1)C(=O)N[C@@H](Cc1ccccc1)C(=O)N[C@H](C(=O)N[C@@H](CC(N)=O)C(=O)N[C@@H](CO)C(=O)N[C@@H](Cc1ccc(O)cc1)C(=O)N[C@@H](CCCNC(=N)N)C(=O)N[C@@H](CCCCN)C(=O)N[C@H](C(=O)N[C@@H](CC(C)C)C(=O)NCC(=O)N[C@@H](CCC(N)=O)C(=O)N[C@@H](CC(C)C)C(=O)N[C@@H](CO)C(=O)N[C@@H](C)C(=O)N[C@@H](CCCNC(=N)N)C(=O)N[C@@H](CCCCN)C(=O)N[C@@H](CC(C)C)C(=O)N[C@@H](CC(C)C)C(=O)N[C@@H](CCC(N)=O)C(=O)N[C@@H](CC(=O)O)C(=O)N[C@H](C(=O)N[C@@H](CCSC)C(=O)N[C@@H](CO)C(=O)N[C@@H](CCCNC(=N)N)C(=O)N[C@@H](CCC(N)=O)C(=O)N[C@@H](CCC(N)=O)C(=O)NCC(=O)N[C@@H](CCC(=O)O)C(=O)N[C@@H](CO)C(=O)N[C@@H](CC(N)=O)C(=O)N[C@@H](CCC(N)=O)C(=O)N[C@@H](CCC(=O)O)C(=O)N[C@@H](CCCNC(=N)N)C(=O)NCC(=O)N[C@@H](C)C(=O)N[C@@H](CCCNC(=N)N)C(=O)N[C@@H](C)C(=O)N[C@@H](CCCNC(=N)N)C(=O)N[C@@H](CC(C)C)C(N)=O)[C@@H](C)CC)C(C)C)[C@@H](C)O (5 µM),1.25,1.12,0.762,0.893
CN1CCc2cccc3c2[C@H]1Cc1ccc(O)c(O)c1-3 (5 µM),0.927,1.12,0.722,0.51
NC(N)=Nc1nc(CSCC/C(N)=N/S(N)(=O)=O)cs1 (5 µM),1.04,1.1,0.943,0.817
NC[C@@H]1O[C@H](c2ccccc2)Cc2c1ccc(O)c2O (5 µM),0.887,1.04,0.515,0.53
CNC(=O)c1cc2c(cn1)[nH]c1ccccc12 (5 µM),0.943,1.3,0.952,0.749
COc1cccc(CNc2ccc3nc(-c4ccc(N)cc4)c(OC)n3n2)c1 (5 µM),0.845,0.891,0.987,0.92
C[N+](C)(C)CCOC(N)=O (5 µM),0.992,1.32,0.931,0.69
COC(=O)[C@@H]1[C@H]2C[C@H]3c4[nH]c5ccccc5c4CCN3C[C@@H]2CC[C@@H]1O (5 µM),0.933,0.931,0.751,0.436

# Looked up by compound from the list above:
Structure (SMILES),cell viability (H4 GFP-LC3 [1]; 6 h),cell viability (H4 GFP-LC3 [1]; 24 h),ACBP immunofluorescence intensity (H4 GFP-LC3 [2]; 6 h),ACBP immunofluorescence intensity (H4 GFP-LC3 [2]; 24 h)
CNC(=O)c1cc2c(cn1)[nH]c1ccccc12 (5 µM),0.943,1.3,0.952,0.749
NC(N)=Nc1nc(CSCC/C(N)=N/S(N)(=O)=O)cs1 (5 µM),1.04,1.1,0.943,0.817
